Data as given in PubChem BioAssay AID686938 (Drosophila RNAi Screening Center, 2013)

- Test: 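Fly genes required for calcium entry once internal stores are emptied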 (primary screen)
- Cell system: Drosophila S2R+ cells
- Knock-down reagent: long dsRNA against Drosophila genes, about 0.25 µg dsRNA per well, roughly 10,000 cells
- Timing: 5 days of knock-down before the calcium assay
- Treatment: thapsigargin (SERCA pump blocker) to empty calcium stores; entry signal taken 4 min after adding it
- Measured: 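Duplicate raw fluo-4 intensities per well from a plate reader, at rest and four minutes after thapsigargin emptied calcium stores; entry-to-rest ratio filled for only some wells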
- Scale: calcium entry signal: higher = stronger calcium signal after store depletion; resting calcium signal: higher = higher resting calcium signal
- Units: calcium entry signal in fluorescence units; resting calcium signal in fluorescence units
- Rule for the call: 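Hit if the duplicate-averaged plate z-score for entry over resting signal is under −3; wells with weak total dye signal (Fmax z < −2) or more than 5 off-targets removed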
- Meaning of the calls: active = strongly reduced calcium entry; inactive = no strong reduction
The deposit covers about 23,000 reagents; below is an unselected part of those with a known target gene and a result. In the full data, 75 (0.33%) got an active call. 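Raw plate signals without normalisation; calls rest on plate z-scores that were not deposited; ratio present for only 364 wells.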 Not stated in the record: the dose of the treatment.

yip7 (yippee interacting protein 7) [DRSC11410] gave calcium entry signal, replicate 1 = 2.42e7; calcium entry signal, replicate 2 = 5.41e7; resting calcium signal, replicate 1 = 1.18e7; resting calcium signal, replicate 2 = 2.31e7; inactive.
mRpL38 (mitochondrial ribosomal protein L38) [DRSC19734] showed calcium entry signal, replicate 1 = 2.84e7; calcium entry signal, replicate 2 = 3.21e7; resting calcium signal, replicate 1 = 1.33e7; resting calcium signal, replicate 2 = 1.44e7; inactive.
Silencing of Dscam2 (Down syndrome cell adhesion molecule 2) [DRSC08869] came out at: calcium entry signal, replicate 1 = 5.38e7; calcium entry signal, replicate 2 = 4.67e7; resting calcium signal, replicate 1 = 2.72e7; resting calcium signal, replicate 2 = 2.30e7; inactive.
Against Dscam2 (Down syndrome cell adhesion molecule 2) [DRSC10198] the deposit lists calcium entry signal, replicate 1 = 1.84e7; calcium entry signal, replicate 2 = 2.93e7; resting calcium signal, replicate 1 = 9.07e6; resting calcium signal, replicate 2 = 1.36e7; inactive.
Silencing of Dscam2 (Down syndrome cell adhesion molecule 2) [DRSC10285] came out at: calcium entry signal, replicate 1 = 1.35e7; calcium entry signal, replicate 2 = 2.31e7; resting calcium signal, replicate 1 = 9.05e6; resting calcium signal, replicate 2 = 1.50e7; inactive.
After knock-down of Dscam2 (Down syndrome cell adhesion molecule 2) [DRSC11018] the results were calcium entry signal, replicate 1 = 2.18e7; calcium entry signal, replicate 2 = 3.47e7; resting calcium signal, replicate 1 = 1.06e7; resting calcium signal, replicate 2 = 1.70e7; inactive.
Dscam2 (Down syndrome cell adhesion molecule 2) [DRSC11019] gave calcium entry signal, replicate 1 = 1.93e7; calcium entry signal, replicate 2 = 3.35e7; resting calcium signal, replicate 1 = 1.01e7; resting calcium signal, replicate 2 = 1.55e7; inactive.
Against Dscam2 (Down syndrome cell adhesion molecule 2) [DRSC22526] the deposit lists calcium entry signal, replicate 1 = 3.54e7; calcium entry signal, replicate 2 = 2.81e7; resting calcium signal, replicate 1 = 1.66e7; resting calcium signal, replicate 2 = 1.14e7; inactive.

Records above whose gene name starts with D or d:
Dscam2 (Down syndrome cell adhesion molecule 2) [DRSC08869] | calcium entry signal, replicate 1: 5.38e7; calcium entry signal, replicate 2: 4.67e7; resting calcium signal, replicate 1: 2.72e7; resting calcium signal, replicate 2: 2.30e7; activity call: inactive
Dscam2 (Down syndrome cell adhesion molecule 2) [DRSC10198] | calcium entry signal, replicate 1: 1.84e7; calcium entry signal, replicate 2: 2.93e7; resting calcium signal, replicate 1: 9.07e6; resting calcium signal, replicate 2: 1.36e7; activity call: inactive
Dscam2 (Down syndrome cell adhesion molecule 2) [DRSC10285] | calcium entry signal, replicate 1: 1.35e7; calcium entry signal, replicate 2: 2.31e7; resting calcium signal, replicate 1: 9.05e6; resting calcium signal, replicate 2: 1.50e7; activity call: inactive
Dscam2 (Down syndrome cell adhesion molecule 2) [DRSC11018] | calcium entry signal, replicate 1: 2.18e7; calcium entry signal, replicate 2: 3.47e7; resting calcium signal, replicate 1: 1.06e7; resting calcium signal, replicate 2: 1.70e7; activity call: inactive
Dscam2 (Down syndrome cell adhesion molecule 2) [DRSC11019] | calcium entry signal, replicate 1: 1.93e7; calcium entry signal, replicate 2: 3.35e7; resting calcium signal, replicate 1: 1.01e7; resting calcium signal, replicate 2: 1.55e7; activity call: inactive
Dscam2 (Down syndrome cell adhesion molecule 2) [DRSC22526] | calcium entry signal, replicate 1: 3.54e7; calcium entry signal, replicate 2: 2.81e7; resting calcium signal, replicate 1: 1.66e7; resting calcium signal, replicate 2: 1.14e7; activity call: inactive

Next entries follow.
GstE6 (Glutathione S transferase E6) [DRSC06676] scored calcium entry signal, replicate 1 = 6.11e7; calcium entry signal, replicate 2 = 5.07e7; resting calcium signal, replicate 1 = 2.52e7; resting calcium signal, replicate 2 = 2.46e7; inactive.
CG14374 [DRSC14834] showed calcium entry signal, replicate 1 = 2.72e7; calcium entry signal, replicate 2 = 4.29e7; resting calcium signal, replicate 1 = 1.47e7; resting calcium signal, replicate 2 = 6.38e7; inactive.
After knock-down of CG34289 [DRSC13625] the results were calcium entry signal, replicate 1 = 3.35e7; calcium entry signal, replicate 2 = 2.97e7; resting calcium signal, replicate 1 = 1.37e7; resting calcium signal, replicate 2 = 1.56e7; inactive.
After knock-down of CG9393 [DRSC16486], the record shows calcium entry signal, replicate 1 = 3.13e7; calcium entry signal, replicate 2 = 4.30e7; resting calcium signal, replicate 1 = 1.38e7; resting calcium signal, replicate 2 = 1.77e7; inactive.
